# Source: article PMC11671384
# The chains behind the UniProt entries cited, without tags or fusion partners. Where a name states a change or a piece, a line headed by the entry shows the natural chain unless it says otherwise.
# UniProt Q92597: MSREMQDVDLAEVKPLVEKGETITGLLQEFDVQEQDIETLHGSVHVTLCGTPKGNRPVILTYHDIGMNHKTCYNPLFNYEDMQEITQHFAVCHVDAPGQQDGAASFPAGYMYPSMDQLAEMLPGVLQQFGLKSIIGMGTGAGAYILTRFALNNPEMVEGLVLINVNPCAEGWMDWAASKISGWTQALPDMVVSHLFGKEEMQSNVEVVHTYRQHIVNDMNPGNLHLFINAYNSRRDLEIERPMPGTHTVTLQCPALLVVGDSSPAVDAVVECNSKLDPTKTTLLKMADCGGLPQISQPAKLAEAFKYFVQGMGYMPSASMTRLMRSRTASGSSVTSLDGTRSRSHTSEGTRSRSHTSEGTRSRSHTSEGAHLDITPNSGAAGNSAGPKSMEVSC
# UniProt P26599: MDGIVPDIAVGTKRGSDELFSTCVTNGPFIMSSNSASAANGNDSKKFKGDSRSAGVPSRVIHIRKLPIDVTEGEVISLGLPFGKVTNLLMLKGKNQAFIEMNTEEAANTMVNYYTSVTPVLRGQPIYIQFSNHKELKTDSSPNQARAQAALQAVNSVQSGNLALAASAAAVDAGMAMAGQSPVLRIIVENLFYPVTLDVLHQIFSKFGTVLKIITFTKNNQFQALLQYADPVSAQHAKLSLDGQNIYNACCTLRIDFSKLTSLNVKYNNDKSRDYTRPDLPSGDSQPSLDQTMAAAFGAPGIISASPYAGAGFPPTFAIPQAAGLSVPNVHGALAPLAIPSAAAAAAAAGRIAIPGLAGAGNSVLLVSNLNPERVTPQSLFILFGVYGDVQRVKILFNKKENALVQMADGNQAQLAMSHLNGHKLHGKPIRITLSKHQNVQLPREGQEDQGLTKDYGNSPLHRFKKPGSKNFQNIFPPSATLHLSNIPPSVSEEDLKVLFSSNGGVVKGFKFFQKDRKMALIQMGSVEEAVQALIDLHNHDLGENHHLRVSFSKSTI
# No constants are given. Whether binding was seen depends on the method and setting. Binding seen in cells or lysates may run through a third protein. Here binding means that the protein was enriched with, or labelled near, the bait; the list need not be complete.
# Molecular target: NDRG1 (S330D) (UniProt Q92597)
# Test: affinity purification with mass spectrometry; NDRG1 (S330D) overexpressed in HUVECs; nuclear proteins precipitated with anti-His-Tag (IgG as control), SDS-PAGE, Coomassie, mass spectrometry
substance,measurement,value
"PTBP1 (endogenous, HUVEC) (from UniProt P26599 1-557)",binding,binds
